Data published in US20100255010A1 (Genentech, published 2010).
These are yes or no findings as the source states them, for the method shown.

Legend:
Test in all cases: direct phage ELISA on a panel of coated proteins, OD450
DR5 = biological target: DR5
HRG = biological target: HRG
VEGF = biological target: VEGF

Measured: binding

B1: DL7, phage-displayed Fab (Fab, V domains shown)
VH: EVQLVESGGGLVQPGGSLRLSCAASGFTLSGDWIHWVRQAPGKGLEWVGEISAAGGYTDYADSVKGRFTISADTSKNTAYLQMNSLRAEDTAVYYCAREARVSYEAAMDYWGQGTLVTVSS
VL: DIQMTQSPSSLSASVGDRVTITCRASQDLATDVAWYQQKPGKAPKLLIYSASFLYSGVPSRFSGSGSGTDFTLTISSLQPEDFATYYCQQSEPEPYTFGQGTKVEIKR
no binding: all assays above
